Drawing on publication PMC5241945, “A new enzyme-linked immunosorbent assay (ELISA) for human free and bound kallikrein 9” (Clinical Proteomics, 2017), this text covers binding for one molecule.

Chains of the proteins cited; added tags and fusions are not shown. Lines headed by an entry give the natural chain unless they say otherwise; changes in a name come on top.
UniProt Q9UKQ9: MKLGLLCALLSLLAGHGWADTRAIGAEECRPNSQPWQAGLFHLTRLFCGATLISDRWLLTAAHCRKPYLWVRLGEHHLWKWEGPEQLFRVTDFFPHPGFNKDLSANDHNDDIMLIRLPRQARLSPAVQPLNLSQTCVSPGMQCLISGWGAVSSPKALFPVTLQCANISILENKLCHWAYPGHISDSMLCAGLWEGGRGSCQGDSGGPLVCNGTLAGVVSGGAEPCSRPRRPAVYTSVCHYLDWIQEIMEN

Results are given in words; binding and its absence hold for the method and conditions named. Binding calls can cover weak binding; strength is not graded here.

The target of test [1] is KLK9, endogenous in ovarian cancer ascites (a1-antichymotrypsin-bound form) (human (endogenous in ovarian cancer ascites)) (UniProt Q9UKQ9). Briefly: SEC + ELISA; ascites diluted 10 times in 0.1 M NaH2PO4, 0.1 M Na2SO4 pH 6.8, fractionated on TSKGEL G3000SW; 1 mL fractions analysed by KLK9 ELISA and by KLK9-ACT hybrid ELISA (28ED436 capture, rabbit pAb anti-serpinA3 detection).

The target is the same in test [2]. In words: ELISA; hybrid sandwich immunoassay on unfractionated ascites: anti-KLK9 mAb 28ED436 coated for capture, sample diluted in Buffer B (50 mM Tris pH 7.8, 0.5 M KCl, BSA, sera), rabbit pAb anti-serpinA3 for detection, ALP-conjugated goat anti-rabbit IgG, time-resolved fluorescence, RT.

B1: a1-antichymotrypsin (ACT), endogenous in ovarian cancer ascites (protein, UniProt P01011 24-423)
chain: HPNSPLDEENLTQENQDRGTHVDLGLASANVDFAFSLYKQLVLKAPDKNVIFSPLSISTALAFLSLGAHNTTLTEILKGLKFNLTETSEAEIHQSFQHLLRTLNQSSDELQLSMGNAMFVKEQLSLLDRFTEDAKRLYGSEAFATDFQDSAAAKKLINDYVKNGTRGKITDLIKDLDSQTMMVLVNYIFFKAKWEMPFDPQDTHQSRFYLSKKKWVMVPMMSLHHLTIPYFRDEELSCTVVELKYTGNASALFILPDQDKMEEVEAMLLPETLKRWRDSLEFREIGELYLPKFSISRDYNLNDILLQLGIEEAFTSKADLSGITGARNLAVSQVVHKAVLDVFEEGTEASAATAVKITLLSALVETRTIVRFNRPFLMIIVPTDTQNIFFMSKVTNPKQA
In the case of B1, the binding entry in test [1] and in test [2] was “binds” throughout.
